Measured values published in the supplement of paper PMC6411743.
± gives the standard deviation of the averaged measurements. The list shows a part of the results, in another mix than the full data.

Tests used:
Assay in all cases: NP40-soluble protein abundance relative to vehicle (solubility fold change) (ratio); higher = more soluble protein in presence of AMP-PNP
[1] = target: T1, J3KPD3 and related entries (UniProt Q9Y580)
T1 sequence (whole entry): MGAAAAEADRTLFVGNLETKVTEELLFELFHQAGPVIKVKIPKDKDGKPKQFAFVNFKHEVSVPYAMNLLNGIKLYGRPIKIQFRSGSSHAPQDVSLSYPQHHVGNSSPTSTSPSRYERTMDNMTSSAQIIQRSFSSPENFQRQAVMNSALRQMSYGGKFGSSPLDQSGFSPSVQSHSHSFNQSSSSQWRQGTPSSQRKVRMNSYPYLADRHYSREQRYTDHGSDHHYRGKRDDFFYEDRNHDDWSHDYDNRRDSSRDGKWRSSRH
Outline: (§1)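 Data come from three independent experiments in which Dounce-homogenised Jurkat crude lysate was treated at eight concentrations from 0.1 to 10 mM. Treatment ran 10 min at room temperature and then 3 min at 37 °C, after which 0.8% NP40 and benzonase were added for 60 min at 4 °C before ultracentrifugation. The supernatant underwent TMT labelling and LC-MS/MS, and vsn-normalised intensities were expressed as fold change against the detergent-processed vehicle in each replicate.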

[2] = target: T2, J3KPT4 and related entries (UniProt Q9H4I3)
T2 sequence (whole entry): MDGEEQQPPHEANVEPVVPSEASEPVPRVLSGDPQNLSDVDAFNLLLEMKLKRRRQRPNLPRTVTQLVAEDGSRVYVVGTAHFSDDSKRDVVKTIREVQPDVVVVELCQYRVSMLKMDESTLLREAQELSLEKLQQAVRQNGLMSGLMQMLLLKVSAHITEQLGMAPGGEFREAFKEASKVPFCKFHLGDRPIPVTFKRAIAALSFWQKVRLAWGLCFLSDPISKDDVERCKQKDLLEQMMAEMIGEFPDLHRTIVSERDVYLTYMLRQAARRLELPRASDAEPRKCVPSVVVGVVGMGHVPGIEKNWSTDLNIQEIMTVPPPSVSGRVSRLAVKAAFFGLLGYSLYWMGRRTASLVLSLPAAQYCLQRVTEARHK
Outline: as §1

[3] = target: T3, J3KQ09 and related entries (UniProt Q9UNA4)
T3 sequence (whole entry): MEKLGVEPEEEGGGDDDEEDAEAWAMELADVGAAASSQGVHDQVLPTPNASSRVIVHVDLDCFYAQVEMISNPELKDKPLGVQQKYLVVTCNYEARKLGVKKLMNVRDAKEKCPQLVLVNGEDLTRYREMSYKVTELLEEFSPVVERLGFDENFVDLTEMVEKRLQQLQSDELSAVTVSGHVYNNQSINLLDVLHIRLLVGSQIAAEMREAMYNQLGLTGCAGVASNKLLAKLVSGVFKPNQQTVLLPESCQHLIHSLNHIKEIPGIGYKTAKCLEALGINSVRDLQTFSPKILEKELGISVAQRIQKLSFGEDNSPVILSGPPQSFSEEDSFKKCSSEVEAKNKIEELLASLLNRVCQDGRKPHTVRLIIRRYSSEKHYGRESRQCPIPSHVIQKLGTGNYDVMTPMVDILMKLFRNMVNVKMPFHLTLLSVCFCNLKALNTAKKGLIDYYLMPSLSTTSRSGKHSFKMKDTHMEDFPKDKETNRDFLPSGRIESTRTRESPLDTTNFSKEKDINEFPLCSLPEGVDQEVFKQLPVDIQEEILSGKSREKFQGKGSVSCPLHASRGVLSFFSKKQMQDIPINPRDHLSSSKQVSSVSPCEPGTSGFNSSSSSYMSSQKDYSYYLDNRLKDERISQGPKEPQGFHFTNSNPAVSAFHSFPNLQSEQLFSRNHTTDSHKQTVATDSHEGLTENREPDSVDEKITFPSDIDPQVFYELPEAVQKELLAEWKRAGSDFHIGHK
Outline: as §1

[4] = target: T4, J3KQS5 and related entries (UniProt Q96JA3)
T4 sequence (whole entry): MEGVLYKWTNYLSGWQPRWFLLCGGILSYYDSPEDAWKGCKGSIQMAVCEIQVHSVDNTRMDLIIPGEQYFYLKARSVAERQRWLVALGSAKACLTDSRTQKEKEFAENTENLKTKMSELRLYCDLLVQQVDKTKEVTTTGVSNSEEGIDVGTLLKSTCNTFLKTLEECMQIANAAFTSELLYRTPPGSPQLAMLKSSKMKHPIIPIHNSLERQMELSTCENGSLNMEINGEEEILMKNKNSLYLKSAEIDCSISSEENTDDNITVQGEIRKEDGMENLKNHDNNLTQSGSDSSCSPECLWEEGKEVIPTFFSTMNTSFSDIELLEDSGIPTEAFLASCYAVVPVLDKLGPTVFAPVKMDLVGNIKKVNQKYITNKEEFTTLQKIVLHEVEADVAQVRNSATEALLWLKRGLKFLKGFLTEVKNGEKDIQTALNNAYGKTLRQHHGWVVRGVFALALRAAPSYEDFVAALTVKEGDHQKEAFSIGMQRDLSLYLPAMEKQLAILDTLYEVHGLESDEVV
Outline: as §1

[5] = target: T5, J3KSZ8 and related entries (UniProt Q68DK7)
T5 sequence (whole entry): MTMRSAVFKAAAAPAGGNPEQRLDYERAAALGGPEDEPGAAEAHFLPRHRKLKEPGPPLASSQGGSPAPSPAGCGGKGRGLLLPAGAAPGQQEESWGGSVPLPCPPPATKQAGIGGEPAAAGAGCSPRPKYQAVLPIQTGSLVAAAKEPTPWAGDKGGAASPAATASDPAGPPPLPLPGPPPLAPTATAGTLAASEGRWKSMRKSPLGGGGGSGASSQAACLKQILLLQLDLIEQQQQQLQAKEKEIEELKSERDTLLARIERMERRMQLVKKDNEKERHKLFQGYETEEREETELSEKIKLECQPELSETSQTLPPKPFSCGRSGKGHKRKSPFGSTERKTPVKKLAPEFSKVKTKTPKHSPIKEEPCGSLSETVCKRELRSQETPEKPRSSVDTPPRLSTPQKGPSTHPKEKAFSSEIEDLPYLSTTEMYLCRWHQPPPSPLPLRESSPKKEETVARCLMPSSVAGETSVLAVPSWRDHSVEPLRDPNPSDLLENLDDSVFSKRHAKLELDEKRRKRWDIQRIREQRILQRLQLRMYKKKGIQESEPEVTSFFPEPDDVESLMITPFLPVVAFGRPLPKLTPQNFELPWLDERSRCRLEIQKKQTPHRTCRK
Outline: as §1

## Nc1ncnc2c1ncn2[C@@H]1O[C@H](COP(=O)(O)OP(=O)(O)NP(=O)(O)O)[C@@H](O)[C@H]1O [adenylyl imidodiphosphate]
[1]; concentration: 8mM
  NP40-soluble protein abundance: 0.974 ± 0.051
[1]; concentration: 10mM
  NP40-soluble protein abundance: 1.01 ± 0.063
[2]; concentration: 1mM
  NP40-soluble protein abundance: 0.959 ± 0.029
[2]; concentration: 2mM
  NP40-soluble protein abundance: 0.914 ± 0.033
[2]; concentration: 4mM
  NP40-soluble protein abundance: 0.976 ± 0.015
[2]; concentration: 6mM
  NP40-soluble protein abundance: 0.986 ± 0.053
[2]; concentration: 8mM
  NP40-soluble protein abundance: 0.981 ± 0.011
[2]; concentration: 10mM
  NP40-soluble protein abundance: 0.976 ± 0.021
[3]; concentration: 1mM
  NP40-soluble protein abundance: 1.03 ± 0.031
[3]; concentration: 2mM
  NP40-soluble protein abundance: 0.987 ± 0.029
[3]; concentration: 4mM
  NP40-soluble protein abundance: 1.01 ± 0.011
[3]; concentration: 6mM
  NP40-soluble protein abundance: 0.99 ± 0.029
[3]; concentration: 8mM
  NP40-soluble protein abundance: 1 ± 0.015
[3]; concentration: 10mM
  NP40-soluble protein abundance: 0.9853 ± 0.0059
[4]; concentration: 1mM
  NP40-soluble protein abundance: 0.962 ± 0.02
[4]; concentration: 2mM
  NP40-soluble protein abundance: 0.996 ± 0.033
[4]; concentration: 4mM
  NP40-soluble protein abundance: 0.952 ± 0.03
[4]; concentration: 6mM
  NP40-soluble protein abundance: 0.941 ± 0.028
[4]; concentration: 8mM
  NP40-soluble protein abundance: 0.952 ± 0.018
[4]; concentration: 10mM
  NP40-soluble protein abundance: 0.936 ± 0.012
[5]; concentration: 1mM
  NP40-soluble protein abundance: 1.03 ± 0.027
[5]; concentration: 2mM
  NP40-soluble protein abundance: 1.02 ± 0.069
[5]; concentration: 4mM
  NP40-soluble protein abundance: 1.02 ± 0.031
[5]; concentration: 6mM
  NP40-soluble protein abundance: 1.03 ± 0.027
[5]; concentration: 8mM
  NP40-soluble protein abundance: 1.03 ± 0.035
[5]; concentration: 10mM
  NP40-soluble protein abundance: 1.07 ± 0.04
